# Assay results as given in publication PMC8062632, “Structural studies of phosphorylation-dependent interactions between the V2R receptor and arrestin-2” (Nature Communications, 2021).
# Tested on: arrestin2-Phospho-peptide-Fab30 complex
# Conditions: pH 7.5
smiles,measurement,value
CC(C)C[C@H](NC(=O)[C@H](COP(=O)(O)O)NC(=O)[C@@H]1CCCN1C(=O)[C@@H]1CCCN1C(=O)[C@@H](NC(=O)[C@H](CCCNC(=N)N)NC(=O)CNC(=O)[C@H](CCCNC(=N)N)NC(=O)[C@H](C)N)[C@@H](C)O)C(=O)NCC(=O)N1CCC[C@H]1C(=O)N[C@@H](CCC(N)=O)C(=O)N[C@@H](CC(=O)O)C(=O)N[C@@H](CCC(=O)O)C(=O)N[C@@H](COP(=O)(O)O)C(=O)N[C@@H](CS)C(=O)N[C@H](C(=O)N[C@H](C(=O)N[C@@H](C)C(=O)N[C@@H](COP(=O)(O)O)C(=O)N[C@@H](COP(=O)(O)O)C(=O)N[C@@H](COP(=O)(O)O)C(=O)N[C@@H](CC(C)C)C(=O)N[C@@H](C)C(=O)N[C@@H](CCCCN)C(=O)N[C@@H](CC(=O)O)C(=O)N[C@H](C(=O)N[C@@H](CO)C(=O)N[C@@H](CO)C(=O)O)[C@@H](C)O)[C@@H](C)OP(=O)(O)O)[C@@H](C)OP(=O)(O)O [V2Rpp-1],ΔTm (melting temperature shift caused by Fab 30 incubation),11.81 °C
CC(C)C[C@H](NC(=O)[C@H](COP(=O)(O)O)NC(=O)[C@@H]1CCCN1C(=O)[C@@H]1CCCN1C(=O)[C@@H](NC(=O)[C@H](CCCNC(=N)N)NC(=O)CNC(=O)[C@H](CCCNC(=N)N)NC(=O)[C@H](C)N)[C@@H](C)OP(=O)(O)O)C(=O)NCC(=O)N1CCC[C@H]1C(=O)N[C@@H](CCC(N)=O)C(=O)N[C@@H](CC(=O)O)C(=O)N[C@@H](CCC(=O)O)C(=O)N[C@@H](CO)C(=O)N[C@@H](CS)C(=O)N[C@H](C(=O)N[C@H](C(=O)N[C@@H](C)C(=O)N[C@@H](COP(=O)(O)O)C(=O)N[C@@H](COP(=O)(O)O)C(=O)N[C@@H](COP(=O)(O)O)C(=O)N[C@@H](CC(C)C)C(=O)N[C@@H](C)C(=O)N[C@@H](CCCCN)C(=O)N[C@@H](CC(=O)O)C(=O)N[C@H](C(=O)N[C@@H](CO)C(=O)N[C@@H](CO)C(=O)O)[C@@H](C)O)[C@@H](C)OP(=O)(O)O)[C@@H](C)OP(=O)(O)O [V2Rpp-3],ΔTm (melting temperature shift caused by Fab 30 incubation),12.20 °C
CC(C)C[C@H](NC(=O)[C@H](COP(=O)(O)O)NC(=O)[C@@H]1CCCN1C(=O)[C@@H]1CCCN1C(=O)[C@@H](NC(=O)[C@H](CCCNC(=N)N)NC(=O)CNC(=O)[C@H](CCCNC(=N)N)NC(=O)[C@H](C)N)[C@@H](C)OP(=O)(O)O)C(=O)NCC(=O)N1CCC[C@H]1C(=O)N[C@@H](CCC(N)=O)C(=O)N[C@@H](CC(=O)O)C(=O)N[C@@H](CCC(=O)O)C(=O)N[C@@H](COP(=O)(O)O)C(=O)N[C@@H](CS)C(=O)N[C@H](C(=O)N[C@H](C(=O)N[C@@H](C)C(=O)N[C@@H](COP(=O)(O)O)C(=O)N[C@@H](COP(=O)(O)O)C(=O)N[C@@H](COP(=O)(O)O)C(=O)N[C@@H](CC(C)C)C(=O)N[C@@H](C)C(=O)N[C@@H](CCCCN)C(=O)N[C@@H](CC(=O)O)C(=O)N[C@H](C(=O)N[C@@H](CO)C(=O)N[C@@H](CO)C(=O)O)[C@@H](C)O)[C@@H](C)O)[C@@H](C)OP(=O)(O)O [V2Rpp-4],ΔTm (melting temperature shift caused by Fab 30 incubation),4.21 °C
CC(C)C[C@H](NC(=O)[C@H](COP(=O)(O)O)NC(=O)[C@@H]1CCCN1C(=O)[C@@H]1CCCN1C(=O)[C@@H](NC(=O)[C@H](CCCNC(=N)N)NC(=O)CNC(=O)[C@H](CCCNC(=N)N)NC(=O)[C@H](C)N)[C@@H](C)OP(=O)(O)O)C(=O)NCC(=O)N1CCC[C@H]1C(=O)N[C@@H](CCC(N)=O)C(=O)N[C@@H](CC(=O)O)C(=O)N[C@@H](CCC(=O)O)C(=O)N[C@@H](COP(=O)(O)O)C(=O)N[C@@H](CS)C(=O)N[C@H](C(=O)N[C@H](C(=O)N[C@@H](C)C(=O)N[C@@H](COP(=O)(O)O)C(=O)N[C@@H](CO)C(=O)N[C@@H](CO)C(=O)N[C@@H](CC(C)C)C(=O)N[C@@H](C)C(=O)N[C@@H](CCCCN)C(=O)N[C@@H](CC(=O)O)C(=O)N[C@H](C(=O)N[C@@H](CO)C(=O)N[C@@H](CO)C(=O)O)[C@@H](C)O)[C@@H](C)OP(=O)(O)O)[C@@H](C)OP(=O)(O)O [V2Rpp-6-7],ΔTm (melting temperature shift caused by Fab 30 incubation),3.19 °C
